Results deposited as PubChem BioAssay AID1224830 (NIAID, 2016).

- Screen: 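Host factors that control LPS-induced TNF expression in human macrophages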 (primary screen)
- Cell system: human THP-1 monocytic leukaemia cells, TNF dual-luciferase reporter clone, PMA-differentiated to macrophage-like cells
- Reagents: siRNA pool against human genes, 50 nM
- Time to read-out: LPS for 4 h, given about 3 days after siRNA transfection
- Treatment: bacterial LPS (TLR4 ligand), 10 ng/ml
- Detection: 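TNF firefly reporter luminescence divided by renilla, normalised to the plate median, then turned into a robust z-score for each replicate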
- Direction: TNF reporter robust z-score: higher = stronger TNF reporter response to LPS
- Hit rule: 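a well is active when its z-score exceeds 2.8 or falls below -1.5; control wells carry no call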
In all, the deposit lists about 18,000 reagents; below is an unselected part. About 2,900 of all reagents (16%) were called active. 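Calls are made per well; low scores hint the gene aids the LPS response, high scores that it dampens it.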 Repeated entries: four replicate wells of each siRNA pool.

target | PubChem SID | TNF reporter robust z-score | Outcome
RNASE11 (ribonuclease A family member 11 (inactive)) | SID315461552 | -0.93 | inactive
RNASE11 (ribonuclease A family member 11 (inactive)) | SID315461552 | 0.14 | inactive
RNASE11 (ribonuclease A family member 11 (inactive)) | SID315461552 | 0.21 | inactive
ATF7IP (activating transcription factor 7 interacting protein) | SID315457806 | -0.06 | inactive
ATF7IP (activating transcription factor 7 interacting protein) | SID315457806 | -0.14 | inactive
ATF7IP (activating transcription factor 7 interacting protein) | SID315457806 | -0.9 | inactive
ATF7IP (activating transcription factor 7 interacting protein) | SID315457806 | -0.37 | inactive
FAM81B (family with sequence similarity 81 member B) | SID315462570 | -0.93 | inactive
FAM81B (family with sequence similarity 81 member B) | SID315462570 | -0.41 | inactive
FAM81B (family with sequence similarity 81 member B) | SID315462570 | -0.15 | inactive
FAM81B (family with sequence similarity 81 member B) | SID315462570 | -0.54 | inactive
MYLIP (myosin regulatory light chain interacting protein) | SID315456153 | -0.19 | inactive
MYLIP (myosin regulatory light chain interacting protein) | SID315456153 | -1.19 | inactive
MYLIP (myosin regulatory light chain interacting protein) | SID315456153 | -1.14 | inactive
MYLIP (myosin regulatory light chain interacting protein) | SID315456153 | 0.58 | inactive
STARD10 (StAR related lipid transfer domain containing 10) | SID315454379 | -1.03 | inactive
STARD10 (StAR related lipid transfer domain containing 10) | SID315454379 | -0.19 | inactive
STARD10 (StAR related lipid transfer domain containing 10) | SID315454379 | -0.84 | inactive
STARD10 (StAR related lipid transfer domain containing 10) | SID315454379 | -0.99 | inactive
FAM20A (FAM20A golgi associated secretory pathway pseudokinase) | SID315457144 | – | inactive
FAM20A (FAM20A golgi associated secretory pathway pseudokinase) | SID315457144 | -0.66 | inactive
FAM20A (FAM20A golgi associated secretory pathway pseudokinase) | SID315457144 | -1.13 | inactive
FAM20A (FAM20A golgi associated secretory pathway pseudokinase) | SID315457144 | -0.49 | inactive
FAM20A (FAM20A golgi associated secretory pathway pseudokinase) | SID315457144 | -0.4 | inactive
ENTREP1 (endosomal transmembrane epsin interactor 1) | SID315453267 | 1.21 | inactive
ENTREP1 (endosomal transmembrane epsin interactor 1) | SID315453267 | -0.92 | inactive
ENTREP1 (endosomal transmembrane epsin interactor 1) | SID315453267 | -0.58 | inactive
ENTREP1 (endosomal transmembrane epsin interactor 1) | SID315453267 | -0.01 | inactive
IRS4 (insulin receptor substrate 4) | SID315452585 | -0.53 | inactive
IRS4 (insulin receptor substrate 4) | SID315452585 | 0.3 | inactive
IRS4 (insulin receptor substrate 4) | SID315452585 | 0.09 | inactive
IRS4 (insulin receptor substrate 4) | SID315452585 | -0.14 | inactive
OR52D1 (olfactory receptor family 52 subfamily D member 1) | SID315464600 | -1.03 | inactive
OR52D1 (olfactory receptor family 52 subfamily D member 1) | SID315464600 | -0.12 | inactive
OR52D1 (olfactory receptor family 52 subfamily D member 1) | SID315464600 | -0.4 | inactive
OR52D1 (olfactory receptor family 52 subfamily D member 1) | SID315464600 | -0.47 | inactive
OR4F5 (olfactory receptor family 4 subfamily F member 5) | SID315459291 | -0.27 | inactive
OR4F5 (olfactory receptor family 4 subfamily F member 5) | SID315459291 | 0.07 | inactive
OR4F5 (olfactory receptor family 4 subfamily F member 5) | SID315459291 | 0.04 | inactive
OR4F5 (olfactory receptor family 4 subfamily F member 5) | SID315459291 | 0.4 | inactive
GPR3 (G protein-coupled receptor 3) | SID315448986 | 0.71 | inactive
GPR3 (G protein-coupled receptor 3) | SID315448986 | 0.09 | inactive
GPR3 (G protein-coupled receptor 3) | SID315448986 | -0.71 | inactive
GPR3 (G protein-coupled receptor 3) | SID315448986 | -0.32 | inactive
NMS (neuromedin S) | SID315461833 | -0.82 | inactive
NMS (neuromedin S) | SID315461833 | -0.85 | inactive
NMS (neuromedin S) | SID315461833 | -0.49 | inactive
NMS (neuromedin S) | SID315461833 | -0.9 | inactive
SOX10 (SRY-box transcription factor 10) | SID315451585 | 1.05 | inactive
SOX10 (SRY-box transcription factor 10) | SID315451585 | -0.02 | inactive
SOX10 (SRY-box transcription factor 10) | SID315451585 | 0.91 | inactive
SOX10 (SRY-box transcription factor 10) | SID315451585 | 1.19 | inactive
HAMP (hepcidin antimicrobial peptide) | SID315458594 | -0.29 | inactive
HAMP (hepcidin antimicrobial peptide) | SID315458594 | 2.47 | inactive
HAMP (hepcidin antimicrobial peptide) | SID315458594 | 3.96 | active
HAMP (hepcidin antimicrobial peptide) | SID315458594 | 1.01 | inactive
OR10T2 (olfactory receptor family 10 subfamily T member 2) | SID315461792 | 0 | inactive
OR10T2 (olfactory receptor family 10 subfamily T member 2) | SID315461792 | 0.01 | inactive
OR10T2 (olfactory receptor family 10 subfamily T member 2) | SID315461792 | 0.03 | inactive
OR10T2 (olfactory receptor family 10 subfamily T member 2) | SID315461792 | 0.41 | inactive
RNF144A (ring finger protein 144A) | SID315453560 | 1.35 | inactive
RNF144A (ring finger protein 144A) | SID315453560 | -0.25 | inactive
RNF144A (ring finger protein 144A) | SID315453560 | 0.73 | inactive
RNF144A (ring finger protein 144A) | SID315453560 | 1.74 | inactive
BEND2 (BEN domain containing 2) | SID315462062 | -0.75 | inactive
BEND2 (BEN domain containing 2) | SID315462062 | 0.2 | inactive
BEND2 (BEN domain containing 2) | SID315462062 | 0.08 | inactive
BEND2 (BEN domain containing 2) | SID315462062 | 0.92 | inactive
TBC1D25 (TBC1 domain family member 25) | SID315450340 | -0.46 | inactive
TBC1D25 (TBC1 domain family member 25) | SID315450340 | 1.01 | inactive
TBC1D25 (TBC1 domain family member 25) | SID315450340 | -0.15 | inactive
TBC1D25 (TBC1 domain family member 25) | SID315450340 | -1.17 | inactive
AQP1 (aquaporin 1 (Colton blood group)) | SID315447369 | -0.48 | inactive
AQP1 (aquaporin 1 (Colton blood group)) | SID315447369 | 0.16 | inactive
AQP1 (aquaporin 1 (Colton blood group)) | SID315447369 | 0.34 | inactive
KISS1R (KISS1 receptor) | SID315460429 | 0.08 | inactive
KISS1R (KISS1 receptor) | SID315460429 | -0.92 | inactive
KISS1R (KISS1 receptor) | SID315460429 | -0.69 | inactive
KISS1R (KISS1 receptor) | SID315460429 | -0.43 | inactive

A run of entries from the list above, for reference:
target | PubChem SID | TNF reporter robust z-score | Outcome
RNASE11 (ribonuclease A family member 11 (inactive)) | SID315461552 | 0.14 | inactive
RNASE11 (ribonuclease A family member 11 (inactive)) | SID315461552 | 0.21 | inactive
ATF7IP (activating transcription factor 7 interacting protein) | SID315457806 | -0.06 | inactive
ATF7IP (activating transcription factor 7 interacting protein) | SID315457806 | -0.14 | inactive
ATF7IP (activating transcription factor 7 interacting protein) | SID315457806 | -0.9 | inactive
ATF7IP (activating transcription factor 7 interacting protein) | SID315457806 | -0.37 | inactive
FAM81B (family with sequence similarity 81 member B) | SID315462570 | -0.93 | inactive
FAM81B (family with sequence similarity 81 member B) | SID315462570 | -0.41 | inactive
FAM81B (family with sequence similarity 81 member B) | SID315462570 | -0.15 | inactive
FAM81B (family with sequence similarity 81 member B) | SID315462570 | -0.54 | inactive
MYLIP (myosin regulatory light chain interacting protein) | SID315456153 | -0.19 | inactive
MYLIP (myosin regulatory light chain interacting protein) | SID315456153 | -1.19 | inactive
MYLIP (myosin regulatory light chain interacting protein) | SID315456153 | -1.14 | inactive
MYLIP (myosin regulatory light chain interacting protein) | SID315456153 | 0.58 | inactive
STARD10 (StAR related lipid transfer domain containing 10) | SID315454379 | -1.03 | inactive
STARD10 (StAR related lipid transfer domain containing 10) | SID315454379 | -0.19 | inactive
STARD10 (StAR related lipid transfer domain containing 10) | SID315454379 | -0.84 | inactive
STARD10 (StAR related lipid transfer domain containing 10) | SID315454379 | -0.99 | inactive
FAM20A (FAM20A golgi associated secretory pathway pseudokinase) | SID315457144 | – | inactive
FAM20A (FAM20A golgi associated secretory pathway pseudokinase) | SID315457144 | -0.66 | inactive
FAM20A (FAM20A golgi associated secretory pathway pseudokinase) | SID315457144 | -1.13 | inactive

Next reagents follow:
target | PubChem SID | TNF reporter robust z-score | Outcome
KLRC2 (killer cell lectin like receptor C2) | SID315449665 | -1.07 | inactive
KLRC2 (killer cell lectin like receptor C2) | SID315449665 | -0.38 | inactive
KLRC2 (killer cell lectin like receptor C2) | SID315449665 | -1.14 | inactive
STOM (stomatin) | SID315448525 | -0.84 | inactive
STOM (stomatin) | SID315448525 | -0.8 | inactive
STOM (stomatin) | SID315448525 | -0.95 | inactive
STOM (stomatin) | SID315448525 | -0.64 | inactive
PTPN9 (protein tyrosine phosphatase non-receptor type 9) | SID315450957 | 0.04 | inactive
PTPN9 (protein tyrosine phosphatase non-receptor type 9) | SID315450957 | 1.28 | inactive
PTPN9 (protein tyrosine phosphatase non-receptor type 9) | SID315450957 | 0.76 | inactive
PTPN9 (protein tyrosine phosphatase non-receptor type 9) | SID315450957 | 0.89 | inactive
UFSP1 (UFM1 specific peptidase 1) | SID315464820 | 0.15 | inactive
UFSP1 (UFM1 specific peptidase 1) | SID315464820 | 0.66 | inactive
UFSP1 (UFM1 specific peptidase 1) | SID315464820 | -0.53 | inactive
UFSP1 (UFM1 specific peptidase 1) | SID315464820 | -0.26 | inactive
CCDC51 (coiled-coil domain containing 51) | SID315459405 | -0.37 | inactive
CCDC51 (coiled-coil domain containing 51) | SID315459405 | 0.08 | inactive
CCDC51 (coiled-coil domain containing 51) | SID315459405 | -0.58 | inactive
CCDC51 (coiled-coil domain containing 51) | SID315459405 | 0.09 | inactive
TTC31 (tetratricopeptide repeat domain 31) | SID315458928 | -0.27 | inactive
TTC31 (tetratricopeptide repeat domain 31) | SID315458928 | -0.64 | inactive
TTC31 (tetratricopeptide repeat domain 31) | SID315458928 | 0.04 | inactive
TTC31 (tetratricopeptide repeat domain 31) | SID315458928 | -0.92 | inactive
COPS2 (COP9 signalosome subunit 2) | SID315453193 | -0.89 | inactive
COPS2 (COP9 signalosome subunit 2) | SID315453193 | -1.27 | inactive
COPS2 (COP9 signalosome subunit 2) | SID315453193 | -1.17 | inactive
COPS2 (COP9 signalosome subunit 2) | SID315453193 | -1.32 | inactive
AKAP6 (A-kinase anchoring protein 6) | SID315453312 | 2.74 | inactive
AKAP6 (A-kinase anchoring protein 6) | SID315453312 | 2.36 | inactive
AKAP6 (A-kinase anchoring protein 6) | SID315453312 | 2.08 | inactive
AKAP6 (A-kinase anchoring protein 6) | SID315453312 | 4.09 | active
OR51B6 (olfactory receptor family 51 subfamily B member 6) | SID315464595 | -0.25 | inactive
OR51B6 (olfactory receptor family 51 subfamily B member 6) | SID315464595 | 0.09 | inactive
OR51B6 (olfactory receptor family 51 subfamily B member 6) | SID315464595 | -0.57 | inactive
OR51B6 (olfactory receptor family 51 subfamily B member 6) | SID315464595 | 0.13 | inactive
NAV2 (neuron navigator 2) | SID315460738 | -0.97 | inactive
NAV2 (neuron navigator 2) | SID315460738 | -0.33 | inactive
NAV2 (neuron navigator 2) | SID315460738 | -1.51 | active
NAV2 (neuron navigator 2) | SID315460738 | -0.07 | inactive
B4GALNT4 (beta-1,4-N-acetyl-galactosaminyltransferase 4) | SID315463997 | -0.87 | inactive
B4GALNT4 (beta-1,4-N-acetyl-galactosaminyltransferase 4) | SID315463997 | -0.18 | inactive
B4GALNT4 (beta-1,4-N-acetyl-galactosaminyltransferase 4) | SID315463997 | -0.64 | inactive
HHLA2 (HHLA2 member of B7 family) | SID315454638 | -0.07 | inactive
HHLA2 (HHLA2 member of B7 family) | SID315454638 | 0.23 | inactive
HHLA2 (HHLA2 member of B7 family) | SID315454638 | 0.16 | inactive
HHLA2 (HHLA2 member of B7 family) | SID315454638 | 0.18 | inactive
LY6E (lymphocyte antigen 6 family member E) | SID315449823 | -0.93 | inactive
LY6E (lymphocyte antigen 6 family member E) | SID315449823 | -0.34 | inactive
LY6E (lymphocyte antigen 6 family member E) | SID315449823 | -0.39 | inactive
LY6E (lymphocyte antigen 6 family member E) | SID315449823 | -0.42 | inactive
ITGB1BP2 (integrin subunit beta 1 binding protein 2) | SID315455816 | -0.36 | inactive
ITGB1BP2 (integrin subunit beta 1 binding protein 2) | SID315455816 | 0.33 | inactive
ITGB1BP2 (integrin subunit beta 1 binding protein 2) | SID315455816 | 0.13 | inactive
ITGB1BP2 (integrin subunit beta 1 binding protein 2) | SID315455816 | 0.64 | inactive
LRRC7 (leucine rich repeat containing 7) | SID315458461 | -0.87 | inactive
LRRC7 (leucine rich repeat containing 7) | SID315458461 | -0.6 | inactive
LRRC7 (leucine rich repeat containing 7) | SID315458461 | 0.58 | inactive
LRRC7 (leucine rich repeat containing 7) | SID315458461 | -0.29 | inactive
CD300C (CD300c molecule) | SID315454414 | -0.51 | inactive
CD300C (CD300c molecule) | SID315454414 | -0.12 | inactive
CD300C (CD300c molecule) | SID315454414 | -0.01 | inactive
CD300C (CD300c molecule) | SID315454414 | -0.33 | inactive
